Article doi:10.1101/205914
Results are given in words; binding and its absence hold for the method and conditions named. Some results given as binding are weak or reduced against the parent protein; the word gives no strength. For part of these data: Sequences can lack the tags named with a protein.

Chains of the proteins cited; added tags and fusions are not shown. Lines headed by an entry give the natural chain unless they say otherwise; changes in a name come on top.
UniProt P32908: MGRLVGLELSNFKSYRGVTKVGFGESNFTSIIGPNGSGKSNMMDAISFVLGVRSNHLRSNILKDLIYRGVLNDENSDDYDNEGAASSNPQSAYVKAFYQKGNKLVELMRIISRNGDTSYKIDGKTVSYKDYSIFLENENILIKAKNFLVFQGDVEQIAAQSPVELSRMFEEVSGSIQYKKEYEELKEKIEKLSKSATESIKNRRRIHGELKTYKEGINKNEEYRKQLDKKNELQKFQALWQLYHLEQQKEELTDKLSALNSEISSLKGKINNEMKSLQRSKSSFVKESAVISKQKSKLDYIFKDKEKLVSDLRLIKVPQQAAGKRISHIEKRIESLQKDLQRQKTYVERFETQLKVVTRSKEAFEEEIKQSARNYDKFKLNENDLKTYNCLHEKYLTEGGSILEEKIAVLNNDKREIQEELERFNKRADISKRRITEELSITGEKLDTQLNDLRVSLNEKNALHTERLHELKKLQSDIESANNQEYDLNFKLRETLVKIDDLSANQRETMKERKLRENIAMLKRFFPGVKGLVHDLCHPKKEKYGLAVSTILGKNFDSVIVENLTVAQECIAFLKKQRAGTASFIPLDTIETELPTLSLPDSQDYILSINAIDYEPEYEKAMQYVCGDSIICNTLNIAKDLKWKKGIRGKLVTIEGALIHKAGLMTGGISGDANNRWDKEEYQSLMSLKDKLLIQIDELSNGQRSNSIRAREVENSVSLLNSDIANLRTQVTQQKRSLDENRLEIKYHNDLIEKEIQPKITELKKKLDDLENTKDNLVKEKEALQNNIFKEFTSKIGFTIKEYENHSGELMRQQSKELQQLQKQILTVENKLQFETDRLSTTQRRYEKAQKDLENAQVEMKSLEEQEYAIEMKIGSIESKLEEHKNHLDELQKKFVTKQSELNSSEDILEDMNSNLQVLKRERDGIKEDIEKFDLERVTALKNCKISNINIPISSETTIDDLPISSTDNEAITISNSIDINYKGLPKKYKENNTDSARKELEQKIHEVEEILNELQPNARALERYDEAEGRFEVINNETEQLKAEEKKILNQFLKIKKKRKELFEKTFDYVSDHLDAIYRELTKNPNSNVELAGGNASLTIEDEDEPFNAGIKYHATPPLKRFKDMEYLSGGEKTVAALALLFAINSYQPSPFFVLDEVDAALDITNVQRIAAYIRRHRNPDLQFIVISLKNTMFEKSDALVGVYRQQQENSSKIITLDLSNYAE
UniProt P47037: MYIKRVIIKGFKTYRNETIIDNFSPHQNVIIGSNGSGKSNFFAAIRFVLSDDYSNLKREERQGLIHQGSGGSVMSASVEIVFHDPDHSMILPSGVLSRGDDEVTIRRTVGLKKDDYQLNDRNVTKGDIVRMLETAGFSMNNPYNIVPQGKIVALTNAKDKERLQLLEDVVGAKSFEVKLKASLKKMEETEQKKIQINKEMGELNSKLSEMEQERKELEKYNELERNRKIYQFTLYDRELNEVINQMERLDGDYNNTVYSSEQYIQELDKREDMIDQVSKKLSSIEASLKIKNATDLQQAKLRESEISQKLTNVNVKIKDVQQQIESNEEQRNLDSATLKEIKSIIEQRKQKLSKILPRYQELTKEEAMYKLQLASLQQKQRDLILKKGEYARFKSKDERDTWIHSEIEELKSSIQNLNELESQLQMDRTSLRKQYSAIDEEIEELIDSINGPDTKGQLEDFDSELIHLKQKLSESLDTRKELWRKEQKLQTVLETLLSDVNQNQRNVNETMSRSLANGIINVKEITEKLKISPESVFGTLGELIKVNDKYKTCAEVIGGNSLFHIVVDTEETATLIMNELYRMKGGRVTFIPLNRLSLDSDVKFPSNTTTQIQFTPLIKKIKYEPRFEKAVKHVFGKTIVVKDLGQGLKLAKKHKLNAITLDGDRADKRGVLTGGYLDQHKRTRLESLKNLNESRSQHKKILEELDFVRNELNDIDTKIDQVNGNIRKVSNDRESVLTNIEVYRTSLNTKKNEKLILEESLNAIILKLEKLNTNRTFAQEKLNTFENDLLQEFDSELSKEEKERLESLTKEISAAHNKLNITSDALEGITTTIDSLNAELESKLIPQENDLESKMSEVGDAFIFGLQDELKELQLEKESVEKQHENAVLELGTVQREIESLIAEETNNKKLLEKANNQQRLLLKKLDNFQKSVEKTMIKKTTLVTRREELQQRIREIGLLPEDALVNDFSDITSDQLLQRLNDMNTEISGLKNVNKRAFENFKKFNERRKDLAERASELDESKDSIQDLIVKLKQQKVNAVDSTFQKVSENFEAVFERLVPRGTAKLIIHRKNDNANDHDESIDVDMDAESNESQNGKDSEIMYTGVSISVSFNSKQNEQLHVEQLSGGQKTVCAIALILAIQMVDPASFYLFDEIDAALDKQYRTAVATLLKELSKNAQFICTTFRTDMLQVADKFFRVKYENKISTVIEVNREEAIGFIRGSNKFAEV

B1: Scc3 (protein, UniProt P40541 1-1150)
chain: MTAVRRSTRIRTKSQVIEEDYDDEQNTSAQHVESDKITAKTQHEEEEEQDTGESEESSSEDDYEDQDDDDYVDTATAKRKSRKRKPKSASNTSSKRQKKKPTSAQKSAVSHAPAYHRSKKDQDQYLEIAKDFQPTELFDILSTSEDVSIEELLREWLETYSENRDKFLQEFINLLLNCCGSVARVEDHDVHSNESSNETIGEIQLLFQRQKLHEFYLLISKENKKRKNFKMGPLYQNFAEFMTKLLEVANDLQLLYVESDEDDTQIVTGNLVLDLLTWLSSFSVCKIRCFRYISTLTLYLFQDYLTQQAVNLEKNYLAKLSKQLSLEEKKKRPNNKTLEKLESTIAETQGSKVVIDSIIDNIVKLCFVHRYKDVSDLIRSESMLHLSIWIKNYPEYFLKVTFLKYFGWLLSDNSVSVRLQVTKILPHLIIQNHNSKSTDNSAIRQVFERFKTKILEVAIRDVNLDVRIHSIQVLTEASSLGYLDDSEILIISSLMFDEEFDPFKTSSFNKRSKFLSTVAKFLARVIKEKFDEFIKTHEDLPKEVDGLEVGPVVQVGIFIKILNDSLIYHLKDCAEVDSRTKIRMLTQAAEFLSPYISTHLKTICNLLISDTESNELIQKLQNSANNNSDDEDVDDEELDITPLFPIDRNSTILYLNVFHGLCAGANNPKIQTKDSVKEIVLPLFYDLLNAASIESADILCPLLESFITFSLDDWISIGYETELKKITDKTIKAFMDSTIGNSKVDMKYDIFAKFIHHIHHFEKKELQEKFLNQIATLKIHLKKFLQEKMDPNNSRDDYKDLTCSLYELYINKLTILGRDYPIEVDEELLQLFLNNFVSRIPIMFQDFDDSTAQEINFKMLVLLATWNLEKWREIIEKVRDYENSISKDLRSVWKPIAAIIGRLNTLVISLAATNETFENINSLFYLKWSACTSLMDIIVAIKIFELKLPADATTWRYSMSEQFPFYLHDNASKVLLKIFLYLESLFAKQVDVQLERVADEDANLNDLPETGFFENIETEFLLFTVKLKGLMKLNILDERFASRVALNKEKLGPLFKKIVDDTIMENPEPNKKNIQKAKSNQTQREKAPLQPNSERETDHANTENNDPDIPMTIDLEPIEESSQNNSELAPIEEHPTVVDAIDNSDEITQD
B2: Pds5-Flag (protein, UniProt Q04264 1-1277)
chain: MAKGAVTKLKFNSPIISTSDQLISTNELLDRLKALHEELASLDQDNTDLTGLDKYRDALVSRKLLKHKDVGIRAFTACCLSDILRLYAPDAPYTDAQLTDIFKLVLSQFEQLGDQENGYHIQQTYLITKLLEYRSIVLLADLPSSNNLLIELFHIFYDPNKSFPARLFNVIGGILGEVISEFDSVPLEVLRLIFNKFLTYNPNEIPEGLNVTSDCGYEVSLILCDTYSNRMSRHLTKYYSEIIHEATNDDNNSRLLTVVVKLHKLVLRLWETVPELINAVIGFIYHELSSENELFRKEATKLIGQILTSYSDLNFVSTHSDTFKAWISKIADISPDVRVEWTESIPQIIATREDISKELNQALAKTFIDSDPRVRRTSVMIFNKVPVTEIWKNITNKAIYTSLLHLAREKHKEVRELCINTMAKFYSNSLNEIERTYQNKEIWEIIDTIPSTLYNLYYINDLNINEQVDSVIFEYLLPFEPDNDKRVHRLLTVLSHFDKKAFTSFFAFNARQIKISFAISKYIDFSKFLNNQESMSSSQGPIVMNKYNQTLQWLASGLSDSTKAIDALETIKQFNDERIFYLLNACVTNDIPFLTFKNCYNELVSKLQTPGLFKKYNISTGASIMPRDIAKVIQILLFRASPIIYNVSNISVLLNLSNNSDAKQLDLKRRILDDISKVNPTLFKDQIRTLKTIIKDLDDPDAEKNDNLSLEEALKTLYKASKTLKDQVDFDDTFFFTKLYDFAVESKPEITKYATKLIALSPKAEETLKKIKIRILPLDLQKDKYFTSHIIVLMEIFKKFPHVLNDDSTDIISYLIKEVLLSNQVVGDSKKEIDWVEDSLLSDTKYSAIGNKVFTLKLFTNKLRSIAPDVPRDELAESFTEKTMKLFFYLIASGGELISEFNKEFYPTPSNYQTKLRCVAGIQVLKLARISNLNNFIKPSDIIKLINLVEDESLPVRKTFLEQLKDYVANELISIKFLPLVFFTAYEPDVELKTTTKIWINFTFGLKSFKKGTIFERALPRLIHAIAHHPDIVGGLDSEGDAYLNALTTAIDYLLFYFDSIAAQENFSLLYYLSERVKNYQDKLVEDEIDEEEGPQKEEAPKKHRPYGQKMYIIGELSQMILLNLKEKKNWQHSAYPGKLNLPSDLFKPFATVQEAQLSFKTYIPESLTEKIQNNIKAKIGRILHTSQTQRQRLQKRLLAHENNESQKKKKKVHHARSQADDEEGDGDRESDSDDDSYSPSNKNETKKGHENIVMKKLRVRKEVDYKDDEDDDIEMT

Assays:
[1] = target: T1, GFP-ΔN132-Scc2-1xStrepII (S. cerevisiae) (UniProt Q04002); assay: pull-down
T1 sequence: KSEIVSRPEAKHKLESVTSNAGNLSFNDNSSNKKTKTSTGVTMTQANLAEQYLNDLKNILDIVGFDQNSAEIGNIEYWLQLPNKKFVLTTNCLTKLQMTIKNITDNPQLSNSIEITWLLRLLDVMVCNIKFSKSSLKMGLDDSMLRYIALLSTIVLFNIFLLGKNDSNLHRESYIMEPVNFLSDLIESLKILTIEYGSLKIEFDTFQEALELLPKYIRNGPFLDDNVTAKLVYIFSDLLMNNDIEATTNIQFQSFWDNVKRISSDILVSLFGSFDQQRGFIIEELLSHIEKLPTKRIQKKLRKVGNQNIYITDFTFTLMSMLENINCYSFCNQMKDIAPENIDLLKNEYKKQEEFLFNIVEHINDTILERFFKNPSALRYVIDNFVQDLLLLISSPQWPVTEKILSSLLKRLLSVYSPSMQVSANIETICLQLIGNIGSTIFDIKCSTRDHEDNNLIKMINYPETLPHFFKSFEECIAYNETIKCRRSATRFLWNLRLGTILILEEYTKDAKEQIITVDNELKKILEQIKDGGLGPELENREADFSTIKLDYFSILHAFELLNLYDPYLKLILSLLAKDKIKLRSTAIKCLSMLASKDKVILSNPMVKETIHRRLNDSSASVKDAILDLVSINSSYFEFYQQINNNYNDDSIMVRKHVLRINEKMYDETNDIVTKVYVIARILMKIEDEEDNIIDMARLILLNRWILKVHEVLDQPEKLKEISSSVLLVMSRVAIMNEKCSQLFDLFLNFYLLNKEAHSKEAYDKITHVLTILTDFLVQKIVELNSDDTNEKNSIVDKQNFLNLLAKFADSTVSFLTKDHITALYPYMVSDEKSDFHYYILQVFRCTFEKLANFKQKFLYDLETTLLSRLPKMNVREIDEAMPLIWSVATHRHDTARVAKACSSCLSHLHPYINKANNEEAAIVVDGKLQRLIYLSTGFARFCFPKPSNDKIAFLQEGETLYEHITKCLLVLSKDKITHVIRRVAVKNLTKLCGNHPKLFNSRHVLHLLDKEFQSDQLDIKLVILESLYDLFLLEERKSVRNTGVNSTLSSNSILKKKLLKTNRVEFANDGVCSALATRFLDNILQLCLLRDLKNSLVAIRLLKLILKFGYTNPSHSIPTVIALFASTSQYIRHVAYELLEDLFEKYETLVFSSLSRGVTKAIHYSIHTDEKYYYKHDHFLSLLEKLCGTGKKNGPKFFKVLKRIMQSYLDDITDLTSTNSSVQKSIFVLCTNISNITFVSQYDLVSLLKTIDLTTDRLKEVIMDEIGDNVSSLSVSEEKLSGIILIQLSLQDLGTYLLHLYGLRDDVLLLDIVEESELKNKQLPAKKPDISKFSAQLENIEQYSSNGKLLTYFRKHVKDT

[2] = target: T2, Scc1 2xStrepII (S. cerevisiae) (UniProt Q12158); assay: co-purification
T2 sequence: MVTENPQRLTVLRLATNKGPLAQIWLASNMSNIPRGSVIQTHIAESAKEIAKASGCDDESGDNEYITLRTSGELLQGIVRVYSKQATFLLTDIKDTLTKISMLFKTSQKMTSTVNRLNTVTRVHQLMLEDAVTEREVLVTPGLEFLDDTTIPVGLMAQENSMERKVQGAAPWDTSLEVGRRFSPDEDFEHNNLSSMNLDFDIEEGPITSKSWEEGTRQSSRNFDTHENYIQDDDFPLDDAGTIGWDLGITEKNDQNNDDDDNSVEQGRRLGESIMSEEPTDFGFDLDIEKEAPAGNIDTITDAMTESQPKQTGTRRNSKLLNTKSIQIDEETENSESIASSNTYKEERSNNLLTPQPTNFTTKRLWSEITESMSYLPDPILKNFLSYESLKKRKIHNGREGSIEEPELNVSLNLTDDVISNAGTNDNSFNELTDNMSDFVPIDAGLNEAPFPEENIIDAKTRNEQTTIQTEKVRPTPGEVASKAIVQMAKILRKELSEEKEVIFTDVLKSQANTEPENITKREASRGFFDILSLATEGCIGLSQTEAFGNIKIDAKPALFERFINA

[3] = target: T3, Scc1Δ152-256 2xStrepII (S. cerevisiae) (UniProt Q12158); assay: co-purification
T3 sequence: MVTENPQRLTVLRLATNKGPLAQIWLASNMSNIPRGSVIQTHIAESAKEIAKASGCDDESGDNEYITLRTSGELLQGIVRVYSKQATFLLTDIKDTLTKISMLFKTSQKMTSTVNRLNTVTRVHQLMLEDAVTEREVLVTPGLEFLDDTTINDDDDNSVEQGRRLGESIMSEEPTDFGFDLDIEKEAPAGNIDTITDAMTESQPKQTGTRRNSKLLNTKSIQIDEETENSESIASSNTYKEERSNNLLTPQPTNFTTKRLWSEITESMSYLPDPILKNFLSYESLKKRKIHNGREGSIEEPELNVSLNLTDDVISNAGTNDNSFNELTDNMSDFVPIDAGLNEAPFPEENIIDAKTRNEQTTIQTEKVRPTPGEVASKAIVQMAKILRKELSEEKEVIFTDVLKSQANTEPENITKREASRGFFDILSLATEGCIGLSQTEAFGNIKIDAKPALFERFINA

[4] = target: cohesin tetramer (Smc1, Smc3, Scc1, Scc3) (S. cerevisiae) (UniProt P32908+P47037+Q12158+P40541); assay: co-purification

binding [1] | binding [2] | binding [3] | binding [4] | Molecule
binds |  |  |  | cohesin tetramer containing scc1Δ152-256 (from UniProt P32908;P47037;Q12158;P40541) (complex)
binds |  |  |  | cohesin tetramer (Smc1, Smc3, Scc1, Scc3) (from UniProt P32908;P47037;Q12158;P40541) (complex)
 | binds | binds |  | B1
 | binds |  | binds | B2
